What all share (assay): two-hybrid
In test [1] the target is T1, serine/arginine-rich 45 (SR45), SR45.1 isoform (Arabidopsis thaliana) (UniProt Q9SEE9).
T1 sequence: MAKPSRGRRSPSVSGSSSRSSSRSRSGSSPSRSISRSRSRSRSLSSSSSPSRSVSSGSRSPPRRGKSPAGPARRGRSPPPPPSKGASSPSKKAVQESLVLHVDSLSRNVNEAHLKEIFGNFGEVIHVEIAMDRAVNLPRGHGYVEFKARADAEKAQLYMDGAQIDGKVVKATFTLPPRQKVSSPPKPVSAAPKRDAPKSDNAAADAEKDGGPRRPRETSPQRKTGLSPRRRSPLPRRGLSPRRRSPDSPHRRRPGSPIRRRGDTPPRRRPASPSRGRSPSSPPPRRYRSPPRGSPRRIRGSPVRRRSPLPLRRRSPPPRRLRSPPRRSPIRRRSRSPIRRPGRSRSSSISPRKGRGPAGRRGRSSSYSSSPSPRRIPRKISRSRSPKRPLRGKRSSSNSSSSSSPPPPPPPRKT

The chains behind the UniProt entries cited, without tags or fusion partners.
UniProt Q94A52, whole entry: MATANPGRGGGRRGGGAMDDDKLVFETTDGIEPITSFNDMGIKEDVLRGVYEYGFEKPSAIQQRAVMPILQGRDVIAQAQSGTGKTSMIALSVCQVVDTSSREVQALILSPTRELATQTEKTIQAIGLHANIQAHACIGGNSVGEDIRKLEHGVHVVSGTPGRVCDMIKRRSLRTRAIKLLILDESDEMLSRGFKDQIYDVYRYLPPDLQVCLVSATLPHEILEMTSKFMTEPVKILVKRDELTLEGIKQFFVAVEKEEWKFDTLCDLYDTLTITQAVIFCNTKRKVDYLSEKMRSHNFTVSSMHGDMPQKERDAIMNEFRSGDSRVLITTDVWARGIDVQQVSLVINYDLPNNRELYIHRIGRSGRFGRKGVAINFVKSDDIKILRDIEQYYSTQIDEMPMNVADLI

Test [2] has as its target T1, serine/arginine-rich 45 (SR45), SR45.1 isoform (Arabidopsis thaliana). This is another data set of the same source.
The target in test [3] is T2, SR45mutRRM (Arabidopsis thaliana) (UniProt Q9SEE9).
T2 sequence: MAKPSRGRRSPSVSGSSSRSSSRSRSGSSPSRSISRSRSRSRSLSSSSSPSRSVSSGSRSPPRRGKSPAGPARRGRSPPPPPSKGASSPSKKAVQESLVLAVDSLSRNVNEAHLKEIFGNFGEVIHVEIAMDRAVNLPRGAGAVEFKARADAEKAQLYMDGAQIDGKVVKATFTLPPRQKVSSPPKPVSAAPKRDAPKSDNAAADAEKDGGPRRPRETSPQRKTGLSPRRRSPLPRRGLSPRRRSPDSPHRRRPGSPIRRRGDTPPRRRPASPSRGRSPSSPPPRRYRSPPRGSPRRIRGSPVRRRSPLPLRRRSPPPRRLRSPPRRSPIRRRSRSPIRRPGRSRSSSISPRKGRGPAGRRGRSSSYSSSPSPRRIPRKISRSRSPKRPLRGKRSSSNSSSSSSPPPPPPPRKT

Test [4] addresses T1, serine/arginine-rich 45 (SR45), SR45.1 isoform (Arabidopsis thaliana). The source holds these as a separate data set.

Like-named read-outs stand apart in the source and are kept apart here. These are yes or no findings as the source states them, for the method shown. Some results given as binding are weak or reduced against the parent protein; the word gives no strength.

On to “eukaryotic initiation factor 4A3 (eIF4AIII) (from UniProt Q94A52 1-408)”, for which, in test [1], the binding result was “no binding”.

B1: ALY4 (protein, UniProt Q6NQ72 1-288)
chain: MSGALNMTLDEIVKRGKTARSGGRGISRGRGRGRGGGGRGAGPARRGPLAVNARPSSFTINKPVRRVRSLPWQSGLFEDGLRAAGASGVEVGTRLHVTNLDQGVTNEDIRELFSEIGEVERYAIHYDKNGRPSGTAEVVYPRRSDAFQALKKYNNVLLDGRPMRLEILGGNNSSEAPLSGRVNVNVTGLNGRLKRTVVIQQGGGGRGRVRGGRGGRGPAPTVSRRLPIHNQQGGGMRGGRGGFRARGRGNGGRGRGGGRGNGKKPVEKSAADLDKDLESYHADAMNTS
Turning to B1, the binding result in test [2] was “binds”; in test [3], “binds weakly”.

B2: RZ-1B (protein, UniProt O22703 1-292)
chain: MKDRENDGNLESRIFVGGLSWDVTERQLESTFDRYGKITECQIMVGRDTGRPRGFGFITFTDRRGADDAIKHMHGRELGNKVISVNKAEPKVGGEDVDQLKKGGGYSSRGKGTEDECFKCRRPGHWARDCPSTGDDRERFRVPLAMRSRIGDIDGHRDRYGDRDLEREREREREFDRYMDGRRDRDGGRYSYRDRFDSGDKYEPRDHYPFERYAPPGDRFVSDRYGMPEHHLENEYRGRERSYDRDRYARDTSDRYGDMGPIRDEGRPYRSRPGPYDRPSRPGGRPSSYERW
Regarding B2, the binding result is given as “binds” in test [2] and “binds weakly” in test [3].

B3: PRP38 (Pre-mRNA Processing factor 38) (protein, UniProt Q8LB54 1-355)
chain: MANRTDPLAKNIRGTNPQNLVEKIVRTKIYQHTFWKEQCFGLTAETLVDKAMELDHLGGTFGGSRKPTPFLCLILKMLQIQPEKEIVVEFIKNDDYKYVRILGAFYLRLTGTDVDVYRYLEPLYNDYRKVRQKLSDGKFSLTHVDEVIEELLTKDYSCDIAMPRLKKRWTLEQNGLLEPRKSVLEDDFEEEEEKEENEGIADGSEDEMDQRRKSPERERERDRDRRRDSHRHRDRDYDRDYDMDRDHDRDYERERGHGRDRDRERDRDHYRERDRDRERGRDRERDRRDRARRRSRSRSRDRKRHETDDVRDREEPKKKKEKKEKMKEDGTDHPNPEIAEMNRLRASLGMKPLRD
As to B3, the binding result in test [4] was “binds”; in test [2] it was “binds”; in test [3], “binds weakly”.

B4: RS2Z32 (arginine/serine-rich zinc knuckle-containing protein 32) (protein, UniProt Q9FYB7 1-284)
chain: MPRYDDRYGNTRLYVGRLSSRTRTRDLERLFSRYGRVRDVDMKRDYAFVEFSDPRDADDARYYLDGRDFDGSRITVEASRGAPRGSRDNGSRGPPPGSGRCFNCGVDGHWARDCTAGDWKNKCYRCGERGHIERNCKNSPSPKKARQGGSYSRSPVKSRSPRRRRSPSRSRSYSRGRSYSRSRSPVRREKSVEDRSRSPKAMERSVSPKGRDQSLSPDRKVIDASPKRGSDYDGSPKENGNGRNSASPIVGGGESPVGLNGQDRSPIDDEAELSRPSPKGSESP
On to B4, for which the binding result in test [4] and in test [2] was “binds” each time.

B5: Cyp59 (protein, UniProt Q6Q151 1-506)
chain: MSVLIVTSLGDIVIDLHSDKCPLTCKNFLKLCKIKYYNGCLFHTVQKDFTAQTGDPTGTGAGGDSIYKFLYGEQARFYKDEIHLDLKHSKTGTVAMASGGENLNASQFYFTLRDDLDYLDGKHTVFGQIAEGFDTLTRINEAYVDPKNRPYKNIRIKHTHILDDPFDDPPQLAEMMPDASPEGKPKEEVKDDVRLEDDWVPMDEELGAQELEEVIREKAAHSSAVVLESIGDIPEAEVKPPDNVLFVCKLNPVTEDEDLHTIFSRFGTVVSADVIRDFKTGDSLCYAFIEFENKESCEQAYFKMDNALIDDRRIHVDFSQSVSKLWSQFRQKDSQKGKGNGCFKCGSTDHIAKDCVGGPSSKFIVKDQNRQHGGGEGYEMVFEGDVHETPKHNSHERERSEKIQRRSPHGNGEGKRQHRDERDDGRRQHDREDARELERKHRERKERESREDEDRRRRRRREESRDKESRRERDEDDHRSHRDYKERRRERDDRHGREARHERRDR
Consider B5, for which the binding result in test [2] is “binds”; in test [3], “no binding”.

B6: MOS12 (MODIFIER OF SNC1-1, 12) (protein, UniProt Q8RWV3 1-416)
chain: MIYTAIDNFYLSDEQLKASPSRKDGIDETTEISLRIYGCDLIQEGGILLKLPQAVMATGQVLFQRFYCKKSLAKFDVKIVAASCVWLASKLEENPKKARQVIIVFHRMECRRENLPLEHLDMYAKKFSELKVELSRTERHILKEMGFVCHVEHPHKFISNYLATLETPPELRQEAWNLANDSLRTTLCVRFRSEVVACGVVYAAARRFQVPLPENPPWWKAFDADKSSIDEVCRVLAHLYSLPKAQYISVCKDGKPFTFSSRSGNSQGQSATKDLLPGAGEAVDTKCTAGSANNDLKDGMVTTPHEKATDSKKSGTESNSQPIVGDSSYERSKVGDRERESDREKERGRERDRGRSHRGRDSDRDSDRERDKLKDRSHHRSRDRLKDSGGHSDKSRHHSSRDRDYRDSSKDRRRHH
For B6, the binding result in test [4] and in test [2] was “binds” each time.

B7: CypRS92 (protein, UniProt Q8RWY7 1-837)
chain: MAKKKNPQVFMDVSIDGDPAETMVFELFPEVAPKTSENFRALCTGEKGIGPRSGKPLHYKGSFFHRIMKGSSAQAGDFVNRNGTAGESIYAGKFPDESPKLRHEETGLLSMSIADRDKFGSHFHITFRPNQQLDRNNVVFGKLIQGKEILKKIERVGDEEGKPTVSVKIIRCGEYSGDKKKSDGKKNGKHKKSLRVRRKKRRRHSSSESESSSDSETDSSESDSESDSDLSSPSFLSSSSHERQKKRKRSSKKDKHRRSKQRDKRHEKKRSMRDKRPKRKSRRSPDSLEDSNSGSEASLSDVNVEIGAKKRKHRVSRRTGNSAPAVEKEAESLHQGKRKGPDLLENRGLRSNGISDAASEQISDRQPDIVDDHPSKSRSRSLSPKRTVSKSTSVSPRRSQSKSPSSSPRWNGGRSPAKGSRQVKNLTNSRRESPGSEEKGRHVRRSPTKSVSRSPVRVKKERDISRSPSKSLSRSPLRSPKRVISRSPVRGRIARSPSRSPVRSASRGSLGRGPLRRSSRRSPSRSPVRSSRRSLSRSPIQLSRRSLSRSPTRLSRRSLSRSPIRSPRKSVSRSPVRSSRKSVSRSPVRSSRRRISRSPVRSSRKSVSRSPIRLSRRSISRSPIRLSRRSISRSPVRGRRRISRSPVPARRRSVRPRSPPPDRRRSLSRSASPNGRIRRGRGFSQRFSYARRYRTSPSPDRSPYRFSDRSDRDRFRSRRRFSPSRFRSPLRGRTPPRYRRRSRSVSPGLCYRNRRYSRSPIRSRSPPYRKRRSPSASHSLSPSRSRSRSKSYSKSPIGTGKARSVSRSPSKARSPSKSDSTSSDNSPGGKKGLVAYD
Take B7: the binding result in test [2] was “binds”; in test [3], “no binding”.

B8: RZ-1C (protein, UniProt Q8RWN5 1-310)
chain: MAAKEGSRIFVGGLSPEVTDRDLERAFSRFGDILDCQIMLERDTGRSRGFGFITFADRRAMDESIREMHGRDFGDRVISVNRAEPKLGRDDGESHGSRGGRDSGYSIAGKGSFGGGGGGGGRVGEDECFKCGRVGHWARDCPSAGGGRGGPVGGFSSRASAYGGSDGRVDRYADRDRYVDRERYIDDRYDGAARYGARDRFDSREAYIPRDRYASDRYAAPADRFAGGDRYSRGSDRYPPGSYDKARSFERDIAPSAGSDRYGGGRAGGPIRGGGEEGRGFRSRAGAPYERPSRSGGGGAYPSSSTFDRY
Turning to B8, the binding result in test [2] is given as “binds”; in test [3], “binds weakly”.

B9: AFC2 (enzyme, UniProt P51567 1-427)
chain: MEMERVHEFPHTHMDRRPRKRARLGWDVLPQATKAQVGMFCGQEIGNISSFASSGAPSDNSSSLCVKGVARNGSPPWREDDKDGHYIFELGDDLTPRYKIYSKMGEGTFGQVLECWDRERKEMVAVKIVRGVKKYREAAMIEIEMLQQLGKHDKGGNRCVQIRNWFDYRNHICIVFEKLGSSLYDFLRKNNYRSFPIDLVREIGWQLLECVAFMHDLRMIHTDLKPENILLVSSDYVKIPEYKGSRLQRDVCYKRVPKSSAIKVIDFGSTTYERQDQTYIVSTRHYRAPEVILGLGWSYPCDVWSVGCIIVELCTGEALFQTHENLEHLAMMERVLGPFPQQMLKKVDRHSEKYVRRGRLDWPDGATSRDSLKAVLKLPRLQNLIMQHVDHSAGELINMVQGLLRFDPSERITAREALRHPFFARRR
In the case of B9, the binding result in test [2] and in test [3] was “binds” each time.

The values above are taken from article doi:10.1101/2023.08.07.552250.
